Measured values published in patent US20030064954A1, “Cationic amphiphilic 1,4-dihydropyridine derivatives useful for delivery of nucleotide containing compounds” (priority 2000, published 2003).

Test system: CV-1P (African monkey green kidney fibroblasts cells)
Experiment: In vitro transfection of plasmid DNA, β-galactosidase activity per well
Format: cell-based
Conditions: CVI-P
Experimental: Transfer of plasmid DNA by various compounds was investigated by using CV-1P (African monkey green kidney fibroblasts cells) and D407 (human retinal pigment epithelial) cells.
The cells were cultured in Dulbecco's modified Eagle's medium (DMEM, Gibco), supplemented with 10% fetal bovine serum (FBS), penicillin/streptomycin (100 units/ml and 100 μg/ml respectively) and 2 mM L-glutamine for D 407 cell line. Cell cultures were maintained at 37° C. in a 7% CO2/air incubator. The cells were collected, counted and seeded in growth medium (100 μl) into 96-well culture plate, 20 000 cells per well. One day later the medium was replaced with fresh medium without serum (150 μl)
In the case of confluent CV1-P cells the medium (with of without serum) was changed on fourth day of cell growth before the transfection.
The complexes at different derivative/DNA charge ratios for transfection procedure were prepared just before use in 50 mM MES—50 mM HEPES—75 mM NaCl buffer, pH 7.2 in separate 96 well plates. One hour after changing the serum-free medium with 10% serum the complexes were added to the cells at […]. Dose of DNA per well was 0.6 μg. After 5 h the complexes were removed, the cells were washed with PBS, and the normal growth medium was added. After 45 h of incubation at 37° C. the cells were lysed with 2% Triton X 100, twice deep frozen and the β-galactosidase activity in each well was determined spectrofotometrically with ELx800 automated microplate reader (Bio-Tex Instruments Inc., Winooski, Vt. USA) by monitoring the hydrolysis of o-nitrophenylgalactopyranoside (oNPG) at 405 nm. Purified β-galactosidase from E.coli was used to construct a standard curve and to calculate […] activity in the transfected cells. The results are summarized in Table 3 and FIG. 4 in which the efficiencies of transfection of CVI-P cells (FIG. 4A) and D407 cells (FIG. 4B) using compound XXIII and DOTAP are shown. Transfection efficiencies are given as percentage in comparison to transfection efficiency of Lipofectin^R.

For `Br.CCCCCCCCCCCCCCCC[n+]1cccc(C2C(C(=O)OC3CC(C)CCC3C(C)C)=C(C)NC(C)=C2C(=O)OC2CC(C)CCC2C(C)C)c1.[Br-]` (centres unmarked) [XVIII, 1-Hexadecyl-1′,4′-dihydro-3′,5′-bis(menthyloxycarbonyl)-2′,6′-dimethyl-3,4′-bipyridinium bromide], the transfection efficiency (amphiphile/DNA +/− charge ratio 0.5) was 0,54 β-galactosidase units per well, the transfection efficiency (amphiphile/DNA +/− charge ratio 1) was 0,52 β-galactosidase units per well and the transfection efficiency (amphiphile/DNA +/− charge ratio 2) was 2,36 β-galactosidase units per well. For the same compound, the transfection efficiency (amphiphile/DNA +/− charge ratio 4) was 0,94 β-galactosidase units per well and the transfection efficiency (amphiphile/DNA +/− charge ratio 8) was 1,1 β-galactosidase units per well.
